Assay results: article doi:10.1101/2020.01.08.899328

Protein sequences, listed by entry. Tags and fused reporters are not part of them.
UniProt P97496: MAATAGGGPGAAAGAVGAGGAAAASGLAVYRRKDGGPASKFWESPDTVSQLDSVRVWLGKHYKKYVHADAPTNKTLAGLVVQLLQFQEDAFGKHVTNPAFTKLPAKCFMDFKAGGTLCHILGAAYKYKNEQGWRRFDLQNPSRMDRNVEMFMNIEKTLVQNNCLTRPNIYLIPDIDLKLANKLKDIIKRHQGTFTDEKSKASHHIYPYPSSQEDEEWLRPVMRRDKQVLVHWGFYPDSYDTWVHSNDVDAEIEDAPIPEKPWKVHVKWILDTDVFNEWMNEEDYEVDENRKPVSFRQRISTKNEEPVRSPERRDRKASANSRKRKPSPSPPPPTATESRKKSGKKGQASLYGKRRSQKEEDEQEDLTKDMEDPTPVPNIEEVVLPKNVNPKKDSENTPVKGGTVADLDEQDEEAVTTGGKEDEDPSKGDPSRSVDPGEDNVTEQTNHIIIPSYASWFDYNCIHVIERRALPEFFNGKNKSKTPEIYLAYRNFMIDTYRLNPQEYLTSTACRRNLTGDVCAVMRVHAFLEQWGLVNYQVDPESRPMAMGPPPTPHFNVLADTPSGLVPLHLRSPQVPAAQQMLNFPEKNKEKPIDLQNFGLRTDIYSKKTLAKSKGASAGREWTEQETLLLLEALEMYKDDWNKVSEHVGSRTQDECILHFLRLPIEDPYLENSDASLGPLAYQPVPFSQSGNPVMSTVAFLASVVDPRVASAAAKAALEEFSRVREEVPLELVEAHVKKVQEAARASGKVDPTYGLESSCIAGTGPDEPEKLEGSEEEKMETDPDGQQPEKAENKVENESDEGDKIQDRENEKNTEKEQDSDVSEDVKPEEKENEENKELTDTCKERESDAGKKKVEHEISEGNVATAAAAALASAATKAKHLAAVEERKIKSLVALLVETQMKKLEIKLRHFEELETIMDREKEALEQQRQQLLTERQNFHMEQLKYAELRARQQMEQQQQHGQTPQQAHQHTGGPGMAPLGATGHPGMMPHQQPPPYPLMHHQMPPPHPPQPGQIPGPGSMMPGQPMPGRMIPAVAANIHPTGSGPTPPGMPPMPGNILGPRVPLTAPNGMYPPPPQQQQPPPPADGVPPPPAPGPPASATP
UniProt Q9WTM5: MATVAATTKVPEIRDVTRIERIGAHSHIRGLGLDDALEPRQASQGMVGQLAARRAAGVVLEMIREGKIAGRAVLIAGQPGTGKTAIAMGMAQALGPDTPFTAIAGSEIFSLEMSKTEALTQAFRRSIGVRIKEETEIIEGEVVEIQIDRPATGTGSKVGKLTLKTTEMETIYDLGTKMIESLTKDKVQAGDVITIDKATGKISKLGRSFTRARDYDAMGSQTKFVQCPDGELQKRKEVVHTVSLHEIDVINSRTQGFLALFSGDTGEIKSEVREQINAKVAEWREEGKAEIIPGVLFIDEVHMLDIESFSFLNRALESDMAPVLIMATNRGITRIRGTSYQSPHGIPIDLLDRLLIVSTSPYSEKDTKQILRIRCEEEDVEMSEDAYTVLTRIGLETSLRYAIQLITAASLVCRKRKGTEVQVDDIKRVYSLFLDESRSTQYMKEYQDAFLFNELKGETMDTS
UniProt Q99J95: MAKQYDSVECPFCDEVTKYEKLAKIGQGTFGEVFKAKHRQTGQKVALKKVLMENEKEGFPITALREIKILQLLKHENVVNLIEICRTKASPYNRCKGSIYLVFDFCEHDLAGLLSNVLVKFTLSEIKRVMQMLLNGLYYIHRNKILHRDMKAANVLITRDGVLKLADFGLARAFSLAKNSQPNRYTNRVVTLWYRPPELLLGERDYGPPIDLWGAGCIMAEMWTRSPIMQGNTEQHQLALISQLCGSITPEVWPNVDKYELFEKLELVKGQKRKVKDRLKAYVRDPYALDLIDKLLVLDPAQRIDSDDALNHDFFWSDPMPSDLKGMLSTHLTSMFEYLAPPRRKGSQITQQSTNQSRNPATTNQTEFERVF
UniProt P05627: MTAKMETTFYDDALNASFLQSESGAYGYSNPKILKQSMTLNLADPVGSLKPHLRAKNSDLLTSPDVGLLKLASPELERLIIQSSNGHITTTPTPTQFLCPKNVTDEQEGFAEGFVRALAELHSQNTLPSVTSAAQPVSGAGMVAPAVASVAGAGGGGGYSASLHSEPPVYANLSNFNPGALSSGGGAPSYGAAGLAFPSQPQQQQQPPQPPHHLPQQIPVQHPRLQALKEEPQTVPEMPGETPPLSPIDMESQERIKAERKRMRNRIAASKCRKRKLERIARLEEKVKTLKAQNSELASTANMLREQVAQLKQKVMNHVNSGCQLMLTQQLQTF
UniProt Q3TKT4: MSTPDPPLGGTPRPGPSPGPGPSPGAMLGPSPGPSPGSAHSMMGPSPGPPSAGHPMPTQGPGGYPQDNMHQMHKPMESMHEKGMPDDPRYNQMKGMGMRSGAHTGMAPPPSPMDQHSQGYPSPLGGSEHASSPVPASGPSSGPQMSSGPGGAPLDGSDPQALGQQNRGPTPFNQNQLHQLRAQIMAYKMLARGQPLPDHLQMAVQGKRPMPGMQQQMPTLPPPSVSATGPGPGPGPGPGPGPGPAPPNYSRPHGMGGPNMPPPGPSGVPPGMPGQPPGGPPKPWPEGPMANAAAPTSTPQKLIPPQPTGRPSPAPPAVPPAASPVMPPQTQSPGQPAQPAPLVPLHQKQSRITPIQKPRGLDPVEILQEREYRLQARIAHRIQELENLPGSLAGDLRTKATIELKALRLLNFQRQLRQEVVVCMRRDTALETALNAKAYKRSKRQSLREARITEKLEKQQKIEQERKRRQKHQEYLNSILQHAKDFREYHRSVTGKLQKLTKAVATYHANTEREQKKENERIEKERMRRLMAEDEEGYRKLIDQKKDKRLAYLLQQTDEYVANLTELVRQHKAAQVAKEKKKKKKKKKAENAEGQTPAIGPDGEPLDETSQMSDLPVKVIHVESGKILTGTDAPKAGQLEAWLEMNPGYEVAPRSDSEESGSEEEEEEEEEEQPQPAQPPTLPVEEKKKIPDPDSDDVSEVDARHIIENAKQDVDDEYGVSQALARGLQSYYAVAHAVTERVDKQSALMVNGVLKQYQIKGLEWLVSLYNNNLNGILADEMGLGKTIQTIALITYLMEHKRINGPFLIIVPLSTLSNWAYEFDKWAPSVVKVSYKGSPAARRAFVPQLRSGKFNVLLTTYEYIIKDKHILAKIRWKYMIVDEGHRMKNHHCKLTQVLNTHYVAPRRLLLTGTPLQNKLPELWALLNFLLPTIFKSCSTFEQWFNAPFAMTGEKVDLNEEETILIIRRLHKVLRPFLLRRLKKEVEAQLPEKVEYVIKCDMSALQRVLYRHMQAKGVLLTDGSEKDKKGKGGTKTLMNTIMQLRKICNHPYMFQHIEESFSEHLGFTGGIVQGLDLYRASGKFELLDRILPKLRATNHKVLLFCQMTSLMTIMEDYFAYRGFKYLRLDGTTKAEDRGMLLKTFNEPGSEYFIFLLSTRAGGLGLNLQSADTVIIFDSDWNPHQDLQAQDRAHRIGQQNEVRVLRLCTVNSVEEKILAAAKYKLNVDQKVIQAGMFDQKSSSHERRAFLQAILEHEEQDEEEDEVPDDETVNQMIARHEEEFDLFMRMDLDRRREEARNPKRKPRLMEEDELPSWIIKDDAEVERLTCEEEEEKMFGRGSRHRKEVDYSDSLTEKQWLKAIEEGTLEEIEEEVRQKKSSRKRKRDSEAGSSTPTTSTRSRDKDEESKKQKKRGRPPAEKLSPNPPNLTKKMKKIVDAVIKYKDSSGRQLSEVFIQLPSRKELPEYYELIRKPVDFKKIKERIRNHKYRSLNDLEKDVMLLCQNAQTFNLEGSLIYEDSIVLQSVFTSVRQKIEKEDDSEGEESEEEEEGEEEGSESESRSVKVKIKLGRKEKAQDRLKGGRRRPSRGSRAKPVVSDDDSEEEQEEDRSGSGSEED
UniProt P60122: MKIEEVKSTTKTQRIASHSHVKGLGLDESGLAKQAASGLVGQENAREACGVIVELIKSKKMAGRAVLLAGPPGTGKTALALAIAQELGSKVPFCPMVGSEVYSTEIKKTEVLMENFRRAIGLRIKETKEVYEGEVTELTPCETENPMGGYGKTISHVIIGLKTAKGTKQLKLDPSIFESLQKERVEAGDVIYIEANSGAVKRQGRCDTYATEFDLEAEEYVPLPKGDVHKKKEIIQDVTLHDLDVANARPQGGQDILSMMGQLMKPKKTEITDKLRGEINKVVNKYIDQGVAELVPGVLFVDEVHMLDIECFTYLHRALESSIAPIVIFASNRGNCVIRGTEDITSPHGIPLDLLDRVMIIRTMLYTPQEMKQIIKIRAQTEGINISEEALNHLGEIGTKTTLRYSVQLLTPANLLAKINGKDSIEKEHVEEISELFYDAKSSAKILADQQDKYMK
UniProt Q9DBR0: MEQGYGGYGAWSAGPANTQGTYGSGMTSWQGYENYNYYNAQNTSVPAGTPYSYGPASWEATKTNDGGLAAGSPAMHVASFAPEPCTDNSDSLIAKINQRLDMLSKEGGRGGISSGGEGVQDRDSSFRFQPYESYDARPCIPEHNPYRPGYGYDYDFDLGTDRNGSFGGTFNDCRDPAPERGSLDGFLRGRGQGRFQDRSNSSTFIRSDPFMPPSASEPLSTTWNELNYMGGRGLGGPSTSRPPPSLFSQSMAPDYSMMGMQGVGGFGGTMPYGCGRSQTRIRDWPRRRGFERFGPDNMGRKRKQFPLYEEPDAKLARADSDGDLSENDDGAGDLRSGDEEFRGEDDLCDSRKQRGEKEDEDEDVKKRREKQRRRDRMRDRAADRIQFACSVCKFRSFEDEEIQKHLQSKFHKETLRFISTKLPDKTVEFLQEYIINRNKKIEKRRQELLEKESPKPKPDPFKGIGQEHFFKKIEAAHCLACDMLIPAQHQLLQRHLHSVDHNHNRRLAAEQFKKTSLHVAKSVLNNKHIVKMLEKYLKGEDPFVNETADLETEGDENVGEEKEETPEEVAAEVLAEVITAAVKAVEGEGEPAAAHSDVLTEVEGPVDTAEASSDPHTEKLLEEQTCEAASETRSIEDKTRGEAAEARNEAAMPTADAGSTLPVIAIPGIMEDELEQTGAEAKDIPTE

T1: Ambra1 (Activating Molecule in Beclin1-Regulated Autophagy) (mouse (endogenous in SCC cells)) (UniProt A2AH22)
T1 sequence: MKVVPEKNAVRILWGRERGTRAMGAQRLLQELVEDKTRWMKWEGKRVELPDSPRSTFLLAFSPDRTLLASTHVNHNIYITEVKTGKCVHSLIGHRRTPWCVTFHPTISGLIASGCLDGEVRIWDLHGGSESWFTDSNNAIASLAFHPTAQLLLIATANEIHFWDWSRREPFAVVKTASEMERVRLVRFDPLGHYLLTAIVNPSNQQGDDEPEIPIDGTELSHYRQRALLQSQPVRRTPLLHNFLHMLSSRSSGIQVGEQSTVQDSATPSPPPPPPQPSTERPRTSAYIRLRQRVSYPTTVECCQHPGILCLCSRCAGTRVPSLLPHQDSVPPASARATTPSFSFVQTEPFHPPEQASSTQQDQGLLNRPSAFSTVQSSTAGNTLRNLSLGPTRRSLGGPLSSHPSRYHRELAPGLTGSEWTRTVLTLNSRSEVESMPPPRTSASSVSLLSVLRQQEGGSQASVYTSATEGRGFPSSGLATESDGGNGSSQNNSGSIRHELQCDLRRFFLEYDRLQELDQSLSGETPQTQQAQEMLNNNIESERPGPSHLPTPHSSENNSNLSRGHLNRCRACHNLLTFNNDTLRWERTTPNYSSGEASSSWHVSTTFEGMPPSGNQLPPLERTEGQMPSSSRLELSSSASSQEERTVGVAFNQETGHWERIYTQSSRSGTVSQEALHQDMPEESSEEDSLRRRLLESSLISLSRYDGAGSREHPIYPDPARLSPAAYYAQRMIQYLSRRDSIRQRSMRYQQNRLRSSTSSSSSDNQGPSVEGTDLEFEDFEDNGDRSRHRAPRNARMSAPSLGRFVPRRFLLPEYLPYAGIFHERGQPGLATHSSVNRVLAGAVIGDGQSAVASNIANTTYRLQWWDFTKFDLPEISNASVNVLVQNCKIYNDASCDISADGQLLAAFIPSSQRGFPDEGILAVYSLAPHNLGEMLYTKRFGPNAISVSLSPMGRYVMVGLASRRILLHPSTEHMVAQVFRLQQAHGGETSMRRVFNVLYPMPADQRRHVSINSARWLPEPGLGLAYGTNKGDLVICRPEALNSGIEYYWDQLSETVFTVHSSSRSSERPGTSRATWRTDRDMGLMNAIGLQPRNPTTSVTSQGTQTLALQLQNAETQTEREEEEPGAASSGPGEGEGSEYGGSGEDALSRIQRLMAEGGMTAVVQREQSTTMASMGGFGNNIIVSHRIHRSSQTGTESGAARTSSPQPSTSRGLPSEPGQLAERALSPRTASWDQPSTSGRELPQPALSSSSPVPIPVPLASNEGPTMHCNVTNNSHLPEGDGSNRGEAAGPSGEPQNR

B1: Nup153 (protein, UniProt E9Q3G8 1-1462)
chain: MASEAGGIGGGGGGGKIRTRRCHQGPVKPYQQGRPQHQGILSRVTESVKNIVPGWLQRYFNKSENACSCSPDADEVPPWPENREDEHAIYADENTNTDDGRITPDPAGSNTEEPSTTSTASNYPDVLTRPSLHRSHLNFSVLESPALHCQPSTSSAFPIGSSGFSLVKEIKDSTSQHDDDNISTTSGFSSRASEKDIAVSKNTSLPPLWSPEAERSHSLSQHTAISSKKPAFNLSAFGTLSTSLGNSSILKTSQLGDSPFYPGKTTYGGAAAAVRQNKVRSTPYQAPVRRQMKAKQLNAQSYGVTSSTARRILQSLEKMSSPLADAKRIPSAVSSPLNSPLDRSGIDNTVFQAKKEKVDSQYPPVQRLMTPKPVSIATNRTVYFKPSLTPSGDLRKTNQRIDKKNSTVDEKSISRQNREQESGFSYPNFSIPAANGLSSGVGGGGGKMRRERTHFVAPKPPENEEVEAPLLPQISLPISSSSLPTFSFSSPVTSASPSPVSSSQPLPNKVQMTSLGSTGSPVFTFSSPIVKSTQAAVLPPASIGFTFSVPLAKTEFSGSNSSSETVLSSSAQDITAVNSSSYKKRSAPCEDPFTPAKILREGSVLDILKTPGFASPKVDSPALQPTTTSSIVYTRPAISTFSSSGIEYGESLKAGSSWQCDTCLLQNKVTDNKCIACQAAKLPLKETAKQTGTGTPSKSDKPASTSGTGFGDKFKPAIGTWDCDTCLVQNKPEAVKCVACETPKPGTGVKRALTLTVASESPVTASSSTTVTTGTLGFGDKFKRPVGSWECPVCCVCNKAEDNRCVSCTSEKPGLVSASSSSPAPVSLSSGGCLGLDKFKKPEGSWDCEVCLVQNKADSAKCIACESAKPGTKSEFKGFGTSSSLNPAPSAFKFGIPSSSSGLSQTLTSTGNFKFGDQGGFKLGTSSDSGSTNTMNTNFKFSKPTGDFKFGVLSDSKPEEVKNDNKNDNFQFGSSSGLTNPASSAPFQFGVSTLGQQEKKEELPKSSPAGFSFGAGVNNPPNAAIDTTATSENKSGFNFGTLDTKSVSVTPFTYKTTEAKKEDAPATKGGFTFGKVGSSSLPSSSMFVLGRTEEKQQEPVTSTSLVFGKKADSEEPKCQPVFSFGNSEQTKDESSKPTFSFSVAKPSGKESEQLAKATFAFGNQTNTTTDQGAAKPVFSFLNSSSSSSSAPATSSSGGIFGSSTSSSNPPVAAFVFGQASNPVSSSAFGNAAESSTSQSLLFPQESEPATTSSTAPAASPFVFGTGASSNSVSSGFTFGATTTSSSSGSSFVFGTGHSAPSASPAFGANQTPTFGQSQGASQPNPPSFGSISSSTALFSAGSQPVPPPIFGTVSSSSQPPVFGQQPSQSAFGSGTANASSVFQFGSSTTNFNFTNNNPSGVFTFGASPSTPAASAQPSGSGVFSFSQSPASFTVGSNGKNMFSSSGTSVSGRKIKTAVRRKK
B2: Cdk8 (protein, UniProt Q8R3L8 1-464)
chain: MDYDFKVKLSSERERVEDLFEYEGCKVGRGTYGHVYKAKRKDGKDDKDYALKQIEGTGISMSACREIALLRELKHPNVISLLKVFLSHADRKVWLLFDYAEHDLWHIIKFHRASKANKKPVQLPRGMVKSLLYQILDGIHYLHANWVLHRDLKPANILVMGEGPERGRVKIADMGFARLFNSPLKPLADLDPVVVTFWYRAPELLLGARHYTKAIDIWAIGCIFAELLTSEPIFHCRQEDIKTSNPYHHDQLDRIFNVMGFPADKDWEDIKKMPEHSTLMKDFRRNTYTNCSLIKYMEKHKVKPDSKAFHLLQKLLTMDPIKRITSEQAMQDPYFLEDPLPTSDVFAGCQIPYPKREFLTEEEPDEKGDKKTQQQQQGNNHTNGTGHPGNQDSGHAQGPPLKKVRVVPPTTTSGGLIMTSDYQRSNPHAAYPNPGPSTSQPQSSMGYSATSQQPPQYSHQTHRY
B3: Atf2 (protein, UniProt P16951 1-487)
chain: MSDDKPFLCTAPGCGQRFTNEDHLAVHKHKHEMTLKFGPARNDSVIVADQTPTPTRFLKNCEEVGLFNELASPFENEFKKASEDDIKKMPLDLSPLATPIIRSKIEEPSVVETTHQDSPLPHPESTTSDEKEVPLAQTAQPTSAIVRPASLQVPNVLLTSSDSSVIIQQAVPSPTSSTVITQAPSSNRPIVPVPGPFPLLLHLPNGQTMPVAIPASITSSNVHVPAAVPLVRPVTMVPSVPGIPGPSSPQPVQSEAKMRLKAALTQQHPPVTNGDTVKGHGSGLVRTQSEESRPQSLQQPATSTTETPASPAHTTPQTQNTSGRRRRAANEDPDEKRRKFLERNRAAASRCRQKRKVWVQSLEKKAEDLSSLNGQLQSEVTLLRNEVAQLKQLLLAHKDCPVTAMQKKSGYHTADKDDSSEDLSVPSSPHTEAIQHSSVSTSNGVSSTSKAEAVATSVLTQMADQSTEPALSQIVMAPPSQAQPSGS
B4: Atf7 (protein, UniProt Q8R0S1 1-413)
chain: MGDDRPFVCSAPGCGQRFTNEDHLAVHKHKHEMTLKFGPARTDSVIIADQTPTPTRFLKNCEEVGLFNELASSFEHEFKKASDDDEKKGAAGPLDMSLPSTPDIKIKEEEPVEVDSSPPDSPASSPCSPPLKEKEVTTKPVVISTPTPTIVRPGSLPLHLGYDPLHPTLPSPTSVITQAPPSNRQIGSPTGSLPLVMHLANGQTMPMLPGPPVQMPSVISLARPVSMVPNIPGIPGPPVNNSGSISPSGHPMPSEAKMRLKATLTHQVSSINGGCGMVVGTASTMVTARPEQNQILIQHPDAPSPAQPQVSPAQPTPSTGGRRRRTVDEDPDERRQRFLERNRAAASRCRQKRKLWVSSLEKKAEELTSQNIQLSNEVTLLRNEVAQLKQLLLAHKDCPVTALQKKTQGYLGK

These molecules were tested against T1, Ambra1 (Activating Molecule in Beclin1-Regulated Autophagy) (mouse (endogenous in SCC cells)) (assay: affinity purification with mass spectrometry).
For B1, the binding was “binds”.
With B2 the binding was “binds”.
For B3, the binding was “binds”.
B4 was tested, and the binding was “binds”.

Biological target: T1, Ambra1 (Activating Molecule in Beclin1-Regulated Autophagy) (mouse (endogenous in SCC cells))
Test: affinity purification with mass spectrometry
Remark: another data set of the same source
In the case of SMARCC1 (from UniProt P97496 1-1104), the binding is reported as “binds”.
In the case of Ruvbl2 (from UniProt Q9WTM5 1-463), the binding is reported as “binds”.
In the case of Cdk9 (from UniProt Q99J95 1-372), the binding is reported as “binds”.
In the case of c-Jun (from UniProt P05627 1-334), the binding is reported as “binds”.
With Fosl (mouse (endogenous in SCC cells)) the binding was “binds”.
For “SMARCA4 (Brg1) (from UniProt Q3TKT4 1-1613)”, the binding was “binds”.
In the case of Ruvbl1 (from UniProt P60122 1-456), the binding is reported as “binds”.
In the case of “Akap8 (A kinase anchor protein 8) (from UniProt Q9DBR0 1-687)”, the binding is reported as “binds”.

No constants are given. Whether binding was seen depends on the method and setting. Binding seen in cells or lysates may run through a third protein. These calls come from enrichment with a bait or labelling near it, and not all partners need be listed.
